Taken from: PubChem BioAssay AID1259285 (Sanger Institute, 2017)

- Aim: 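Kinase knock-downs that reduce colorectal cancer cell viability or act with drugs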 (primary screen)
- Cells: human HCC56 colorectal cancer cells
- Reagent: siRNA pool against human genes
- Challenge: DMSO vehicle, or anchor drug BYL719 at 1 µM, cetuximab at 5 µg/ml, or trametinib at 10 nM
- Measurement: 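Viability as a ratio to non-targeting pool wells, averaged over replicates and turned into a robust z-score; synergy scores with BYL719, cetuximab or trametinib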
- Scale: viability robust z-score, no drug: higher = more viable cells, weaker knock-down effect
- Active means: 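Essential when the drug-free viability robust z-score falls below -3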
- Meaning of the calls: active = essential without drug; inactive = no change without drug
In all, the deposit lists 794 reagents; this is a part drawn at random. In the full data, 20 (2.5%) were called active. 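Calls rest on the drug-free arm alone and ignore synergy scores; viability ratios seem to be capped at 1.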 Further read-outs or replicates are left out here. Not stated in the record: the amount of reagent, the time to read-out.

no.	target	viability robust z-score, no drug	call
1	CSNK2B (casein kinase 2 beta)	0.458	inactive
2	GTF2H1 (general transcription factor IIH subunit 1)	-3.07	active
3	TRIO (trio Rho guanine nucleotide exchange factor)	0.458	inactive
4	PAK5 (p21 (RAC1) activated kinase 5)	0.458	inactive
5	ANKK1 (ankyrin repeat and kinase domain containing 1)	0.458	inactive
6	CAMK2B (calcium/calmodulin dependent protein kinase II beta)	-0.706	inactive
7	CKS2 (CDC28 protein kinase regulatory subunit 2)	0.458	inactive
8	WIPF1 (WAS/WASL interacting protein family member 1)	0.458	inactive
9	PDXK (pyridoxal kinase)	0.458	inactive
10	NME3 (NME/NM23 nucleoside diphosphate kinase 3)	0.458	inactive
11	CAMKK2 (calcium/calmodulin dependent protein kinase kinase 2)	-0.0838	inactive
12	PASK (PAS domain containing serine/threonine kinase)	0.458	inactive
13	ADK (adenosine kinase)	0.458	inactive
14	FES (FES proto-oncogene, tyrosine kinase)	0.458	inactive
15	AMHR2 (anti-Mullerian hormone receptor type 2)	-2.43	inactive
16	EPHA10 (EPH receptor A10)	0.458	inactive
17	FXN (frataxin)	0.458	inactive
18	PINK1 (PTEN induced kinase 1)	-1.12	inactive
19	PIK3C2A	-2.53	inactive
20	EPHA1 (EPH receptor A1)	0.458	inactive
21	IRAK2 (interleukin 1 receptor associated kinase 2)	0.458	inactive
22	PRKAB1 (protein kinase AMP-activated non-catalytic subunit beta 1)	0.458	inactive
23	DAPK3 (death associated protein kinase 3)	0.458	inactive
24	PANK1 (pantothenate kinase 1)	0.458	inactive
25	ACO1 (aconitase 1)	0.458	inactive
26	UCK1 (uridine-cytidine kinase 1)	0.458	inactive
27	EIF2AK3 (eukaryotic translation initiation factor 2 alpha kinase 3)	0.458	inactive
28	HIPK3 (homeodomain interacting protein kinase 3)	0.458	inactive
29	CDK5R1 (cyclin dependent kinase 5 regulatory subunit 1)	0.287	inactive
30	ITPKC (inositol-trisphosphate 3-kinase C)	0.306	inactive
31	PAK2 (p21 (RAC1) activated kinase 2)	0.458	inactive
32	FN3KRP (fructosamine 3 kinase related protein)	-1.7	inactive
33	BRWD1 (bromodomain and WD repeat domain containing 1)	0.458	inactive
34	WNK3 (WNK lysine deficient protein kinase 3)	0.458	inactive
35	PLK1 (polo like kinase 1)	-5.49	active
36	PFKFB2 (6-phosphofructo-2-kinase/fructose-2,6-biphosphatase 2)	0.458	inactive
37	STAG2 (STAG2 cohesin complex component)	0.458	inactive
38	FN3K (fructosamine 3 kinase)	0.319	inactive
39	ACVR2B (activin A receptor type 2B)	-0.189	inactive
40	ULK1 (unc-51 like autophagy activating kinase 1)	0.458	inactive
41	SCYL3 (SCY1 like pseudokinase 3)	-0.0475	inactive
42	MERTK (MER proto-oncogene, tyrosine kinase)	0.458	inactive
43	MARK4 (microtubule affinity regulating kinase 4)	-1.09	inactive
44	PIK3C2G	-3.29	active
45	CKM (creatine kinase, M-type)	0.237	inactive
46	CIB2 (calcium and integrin binding family member 2)	-2.57	inactive
47	ACVR2A (activin A receptor type 2A)	0.458	inactive
48	HIPK4 (homeodomain interacting protein kinase 4)	0.458	inactive
49	TEX14 (testis expressed 14, intercellular bridge forming factor)	0.458	inactive
50	DGKH (diacylglycerol kinase eta)	0.144	inactive
51	BRAF (B-Raf proto-oncogene, serine/threonine kinase)	-0.32	inactive
52	GNE	0.458	inactive
53	BPTF (bromodomain PHD finger transcription factor)	-2.11	inactive
54	NADK (NAD kinase)	0.458	inactive
55	RTN4 (reticulon 4)	0.458	inactive
56	MAPK9 (mitogen-activated protein kinase 9)	0.458	inactive
57	RAD21 (RAD21 cohesin complex component)	0.397	inactive
58	RYK (receptor like tyrosine kinase)	0.458	inactive
59	PDK1 (pyruvate dehydrogenase kinase 1)	0.458	inactive
60	ROCK2 (Rho associated coiled-coil containing protein kinase 2)	0.458	inactive
61	TRIM27 (tripartite motif containing 27)	0.458	inactive
62	KMT2B (lysine methyltransferase 2B)	0.458	inactive
63	PIK3CD	0.458	inactive

Looked up above:
FES (FES proto-oncogene, tyrosine kinase), viability robust z-score, no drug → 0.458
MERTK (MER proto-oncogene, tyrosine kinase), viability robust z-score, no drug: 0.458
Value of EPHA1 (EPH receptor A1) under “viability robust z-score, no drug”: 0.458
BRAF (B-Raf proto-oncogene, serine/threonine kinase), call = inactive
PDXK (pyridoxal kinase), viability robust z-score, no drug → 0.458
For “viability robust z-score, no drug”, ACVR2B (activin A receptor type 2B) shows -0.189
